Reference: PubChem BioAssay AID1224830 (NIAID, 2016)
Screen: 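Genes whose knock-down alters the TNF-alpha reporter response to LPS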 (primary screen). Cell system: human THP-1 monocytic leukaemia cells, TNF dual-luciferase reporter clone, PMA-differentiated to macrophage-like cells. Reagent: siRNA pool against human genes, 50 nM. Duration: LPS for 4 h, given about 3 days after siRNA transfection. Treatment: bacterial LPS (TLR4 ligand), 10 ng/ml. Measured: 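Ratio of firefly to renilla light, scaled to the plate median and expressed as a robust z-score per replicate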. Reading the numbers: TNF reporter robust z-score: higher = stronger TNF reporter response to LPS. Call rule: 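a well is active when its z-score exceeds 2.8 or falls below -1.5; control wells carry no call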.
The deposit covers about 18,000 reagents; this is a part drawn at random. About 2,900 of all reagents (16%) count as active. 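Calls are made per well; low scores hint the gene aids the LPS response, high scores that it dampens it.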 Repeated entries: four replicate wells of each siRNA pool.

LMTK1 (GeneID 9625) [SID315453430]
- TNF reporter robust z-score: -0.18
- Outcome: inactive

LMTK1 (GeneID 9625) [SID315453430]
- TNF reporter robust z-score: 0.2
- Outcome: inactive

LMTK1 (GeneID 9625) [SID315453430]
- TNF reporter robust z-score: 0.33
- Outcome: inactive

LMTK1 (GeneID 9625) [SID315453430]
- TNF reporter robust z-score: -0.81
- Outcome: inactive

ASIC2 (GeneID 40) [SID315447147]
- TNF reporter robust z-score: -1.51
- Outcome: active

ASIC2 (GeneID 40) [SID315447147]
- TNF reporter robust z-score: -1.09
- Outcome: inactive

ASIC2 (GeneID 40) [SID315447147]
- TNF reporter robust z-score: -0.71
- Outcome: inactive

ASIC2 (GeneID 40) [SID315447147]
- TNF reporter robust z-score: -0.46
- Outcome: inactive

FAM228A (GeneID 653140) [SID315465137]
- TNF reporter robust z-score: -0.21
- Outcome: inactive

FAM228A (GeneID 653140) [SID315465137]
- TNF reporter robust z-score: -0.82
- Outcome: inactive

FAM228A (GeneID 653140) [SID315465137]
- TNF reporter robust z-score: -1.55
- Outcome: active

FAM228A (GeneID 653140) [SID315465137]
- TNF reporter robust z-score: -0.39
- Outcome: inactive

MIP (GeneID 4284) [SID315449976]
- TNF reporter robust z-score: 0.12
- Outcome: inactive

MIP (GeneID 4284) [SID315449976]
- TNF reporter robust z-score: 0.55
- Outcome: inactive

MIP (GeneID 4284) [SID315449976]
- TNF reporter robust z-score: 0.04
- Outcome: inactive

MIP (GeneID 4284) [SID315449976]
- TNF reporter robust z-score: 0.41
- Outcome: inactive

ESCO1 (GeneID 114799) [SID315461248]
- TNF reporter robust z-score: 0.61
- Outcome: inactive

ESCO1 (GeneID 114799) [SID315461248]
- TNF reporter robust z-score: 0.79
- Outcome: inactive

ESCO1 (GeneID 114799) [SID315461248]
- TNF reporter robust z-score: 0.19
- Outcome: inactive

ESCO1 (GeneID 114799) [SID315461248]
- TNF reporter robust z-score: 0.22
- Outcome: inactive

Continued, starting with the last 6 of the part before.
MIP (GeneID 4284) [SID315449976]
- TNF reporter robust z-score: 0.04
- Outcome: inactive

MIP (GeneID 4284) [SID315449976]
- TNF reporter robust z-score: 0.41
- Outcome: inactive

ESCO1 (GeneID 114799) [SID315461248]
- TNF reporter robust z-score: 0.61
- Outcome: inactive

ESCO1 (GeneID 114799) [SID315461248]
- TNF reporter robust z-score: 0.79
- Outcome: inactive

ESCO1 (GeneID 114799) [SID315461248]
- TNF reporter robust z-score: 0.19
- Outcome: inactive

ESCO1 (GeneID 114799) [SID315461248]
- TNF reporter robust z-score: 0.22
- Outcome: inactive

PRLH (GeneID 51052) [SID315456425]
- TNF reporter robust z-score: 1.21
- Outcome: inactive

PRLH (GeneID 51052) [SID315456425]
- TNF reporter robust z-score: 1.34
- Outcome: inactive

PRLH (GeneID 51052) [SID315456425]
- TNF reporter robust z-score: 0.65
- Outcome: inactive

PRLH (GeneID 51052) [SID315456425]
- TNF reporter robust z-score: 2.44
- Outcome: inactive

PPFIA4 (GeneID 8497) [SID315452601]
- TNF reporter robust z-score: 0.97
- Outcome: inactive

PPFIA4 (GeneID 8497) [SID315452601]
- TNF reporter robust z-score: 0.41
- Outcome: inactive

PPFIA4 (GeneID 8497) [SID315452601]
- TNF reporter robust z-score: -0.08
- Outcome: inactive

PPFIA4 (GeneID 8497) [SID315452601]
- TNF reporter robust z-score: 1.21
- Outcome: inactive

KMT2E (GeneID 55904) [SID315457941]
- TNF reporter robust z-score: -0.38
- Outcome: inactive

KMT2E (GeneID 55904) [SID315457941]
- TNF reporter robust z-score: -0.05
- Outcome: inactive

KMT2E (GeneID 55904) [SID315457941]
- TNF reporter robust z-score: -1.13
- Outcome: inactive

KMT2E (GeneID 55904) [SID315457941]
- TNF reporter robust z-score: -0.83
- Outcome: inactive

PLVAP (GeneID 83483) [SID315460011]
- TNF reporter robust z-score: 0.22
- Outcome: inactive

PLVAP (GeneID 83483) [SID315460011]
- TNF reporter robust z-score: -1
- Outcome: inactive

PLVAP (GeneID 83483) [SID315460011]
- TNF reporter robust z-score: -0.23
- Outcome: inactive

PLVAP (GeneID 83483) [SID315460011]
- TNF reporter robust z-score: -0.7
- Outcome: inactive

TMEM63B (GeneID 55362) [SID315457628]
- TNF reporter robust z-score: -1.06
- Outcome: inactive

TMEM63B (GeneID 55362) [SID315457628]
- TNF reporter robust z-score: -0.41
- Outcome: inactive

TMEM63B (GeneID 55362) [SID315457628]
- TNF reporter robust z-score: -1.14
- Outcome: inactive

TMEM63B (GeneID 55362) [SID315457628]
- TNF reporter robust z-score: -0.73
- Outcome: inactive

ZNF331 (GeneID 55422) [SID315457638]
- TNF reporter robust z-score: 1.8
- Outcome: inactive

ZNF331 (GeneID 55422) [SID315457638]
- TNF reporter robust z-score: -1.2
- Outcome: inactive

ZNF331 (GeneID 55422) [SID315457638]
- TNF reporter robust z-score: -1.36
- Outcome: inactive

ZNF331 (GeneID 55422) [SID315457638]
- TNF reporter robust z-score: -1.37
- Outcome: inactive

KIAA0408 (GeneID 9729) [SID315453516]
- TNF reporter robust z-score: -0.56
- Outcome: inactive

KIAA0408 (GeneID 9729) [SID315453516]
- TNF reporter robust z-score: -0.25
- Outcome: inactive

KIAA0408 (GeneID 9729) [SID315453516]
- TNF reporter robust z-score: -0.77
- Outcome: inactive

KIAA0408 (GeneID 9729) [SID315453516]
- TNF reporter robust z-score: -1.36
- Outcome: inactive
